From PMC10038992
Results are given in words; binding and its absence hold for the method and conditions named. In cells and extracts the contact can be indirect. Some entries that bind do so weakly or less than the wild type. Where a sequence is shown, tags or fusion partners need not be part of it.

Legend:
KCTD7-GFP (human) = target: T1, KCTD7-GFP (human) (UniProt Q96MP8); experiment: co-IP; both partners as tagged constructs transfected in HEK293 cells; lysis in 1% NP-40, 150 mM NaCl, 50 mM Tris pH 8.0, 10% glycerol, 1 mM EDTA; antibody overnight at 4 °C, Dynabeads; immunoblot; KCTD7–Cullin-3 also after knock-down of calpain subunits (not affected)
T1 sequence: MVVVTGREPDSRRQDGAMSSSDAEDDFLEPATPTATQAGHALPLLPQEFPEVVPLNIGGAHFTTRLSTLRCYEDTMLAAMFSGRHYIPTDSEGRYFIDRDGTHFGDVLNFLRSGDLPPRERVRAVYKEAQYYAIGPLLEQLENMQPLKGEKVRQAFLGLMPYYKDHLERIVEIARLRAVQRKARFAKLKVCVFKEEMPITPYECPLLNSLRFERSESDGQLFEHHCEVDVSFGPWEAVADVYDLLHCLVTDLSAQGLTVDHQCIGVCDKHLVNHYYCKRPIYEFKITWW

Cullin-3-myc = Cullin-3-myc (UniProt Q13618); experiment: as above
[1] = target: T2, KCTD7-Flag (potassium channel tetramerization domain containing 7, Flag-tagged, wild type) (human) (UniProt Q96MP8); experiment: co-IP; Flag-tagged KCTD7 constructs transfected in HEK293 cells, endogenous calpain 1, calpain 2 and CAPNS1 detected by immunoblot
T2 sequence: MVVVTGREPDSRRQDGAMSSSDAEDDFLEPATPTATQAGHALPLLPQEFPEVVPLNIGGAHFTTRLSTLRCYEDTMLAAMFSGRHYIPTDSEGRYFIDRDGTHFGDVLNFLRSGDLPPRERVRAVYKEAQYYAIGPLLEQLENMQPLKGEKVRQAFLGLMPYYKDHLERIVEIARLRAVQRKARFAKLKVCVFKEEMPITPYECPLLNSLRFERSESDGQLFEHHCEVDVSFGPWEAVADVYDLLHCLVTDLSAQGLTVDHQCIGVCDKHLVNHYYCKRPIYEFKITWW

B1: CAPNS1-Flag (protein, UniProt P04632 1-268)
chain: MFLVNSFLKGGGGGGGGGGGLGGGLGNVLGGLISGAGGGGGGGGGGGGGGGGGGGGTAMRILGGVISAISEAAAQYNPEPPPPRTHYSNIEANESEEVRQFRRLFAQLAGDDMEVSATELMNILNKVVTRHPDLKTDGFGIDTCRSMVAVMDSDTTGKLGFEEFKYLWNNIKRWQAIYKQFDTDRSGTICSSELPGAFEAAGFHLNEHLYNMIIRRYSDESGNMDFDNFISCLVRLDAMFRAFKSLDKDGTGQIQVNIQEWLQLTMYS
binding (KCTD7-GFP (human)): binds | binding (Cullin-3-myc): binds

B2: CAPNS1 (regulatory subunit of m-calpain and μ-calpain; endogenous, HEK293) (protein, UniProt P04632 1-268)
chain: MFLVNSFLKGGGGGGGGGGGLGGGLGNVLGGLISGAGGGGGGGGGGGGGGGGGGGGTAMRILGGVISAISEAAAQYNPEPPPPRTHYSNIEANESEEVRQFRRLFAQLAGDDMEVSATELMNILNKVVTRHPDLKTDGFGIDTCRSMVAVMDSDTTGKLGFEEFKYLWNNIKRWQAIYKQFDTDRSGTICSSELPGAFEAAGFHLNEHLYNMIIRRYSDESGNMDFDNFISCLVRLDAMFRAFKSLDKDGTGQIQVNIQEWLQLTMYS
binding [1]: binds
